Among the data in publication PMC7819943, “Rice protein-binding microarrays: a tool to detect cis-acting elements near promoter regions in rice” are binding signal values, retold here.

Amino acid sequences for entries named in this document (tags omitted).
UniProt Q0JBA9, entry or part of it: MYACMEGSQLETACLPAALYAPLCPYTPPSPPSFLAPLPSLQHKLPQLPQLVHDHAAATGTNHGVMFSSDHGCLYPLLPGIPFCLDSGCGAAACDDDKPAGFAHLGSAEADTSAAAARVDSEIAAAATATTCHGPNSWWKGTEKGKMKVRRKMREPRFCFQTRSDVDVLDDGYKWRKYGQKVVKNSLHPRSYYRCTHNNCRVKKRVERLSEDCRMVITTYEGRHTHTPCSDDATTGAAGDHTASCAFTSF

This is one part of the list.

In the assay the target is OsWRKY34 (Oryza sativa, UniProt Q0JBA9 1-250). The assay is described as follows: protein-binding microarray (RPBM); PBS, 2% BSA, 51.3 ng/ul salmon testes DNA, 50 uM zinc acetate, 200 nM TF, 25 C, 1 h; high values mean tight binding. The settings on record: protein: recombinant; tags: N-terminal polyhistidine and DsRed monomer fusion (pET32a); label: CyDye5-dUTP incorporated in the synthesized complementary strand; 3' TTTTT single-stranded linker to array surface; dsDNA, one strand shown. In a few lines: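 An Axon 4000B scanner gave the binding signal as per-feature fluorescence intensity in arbitrary units. This followed washing of a custom Agilent array that had been incubated for 1 h at 25 °C with 200 nM protein in PBS, 2% BSA, salmon testes DNA and 50 µM zinc acetate. The proteins were transcription factors fused at the N-terminus to polyhistidine and DsRed, expressed in E. coli BL21-CodonPlus and purified on Ni–NTA.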
Turning to “AACTTTTTTTATATATGTGTTCTTAACAAACTCCCGAGAGCGGAGTCACCTAGTGCAG”, the binding signal is 9030 fluorescence intensity (a.u.).
Turning to “TCCCCGCGCTTCTTCCCTTTGCCCGTCGCTCGCTGCATCACGGAGTCACCTAGTGCAG”, the binding signal is 16100 fluorescence intensity (a.u.).
For “CAAAGCCATTGGTCCCATATTATGCTTTCCAAGTAGCTTTCGGAGTCACCTAGTGCAG”, the binding signal is 8580 fluorescence intensity (a.u.).
For the sequence “CGACAACTGCTGCTCACCTACTCTCCACCTCTCCCAGTCTCGGAGTCACCTAGTGCAG”, the binding signal was 8370 fluorescence intensity (a.u.).
For the sequence “CTCGCCGCCGTTCGTCTCCGCCGCCACCGCCGCCGCCATGCGGAGTCACCTAGTGCAG”, the binding signal was 11300 fluorescence intensity (a.u.).
As for “TGATACGATGACGTTTGGGTGGTTGGATATATATCATGATCGGAGTCACCTAGTGCAG”, the binding signal was 9450 fluorescence intensity (a.u.).
Then “CGTCCCGCACTCCGTCAACACCTCGTCGGCGCTCAACTTCCGGAGTCACCTAGTGCAG”, with 11200 fluorescence intensity (a.u.); and “GTGGGGTGGGTGAGCGGGATGCGGGGCTTAGGCGGGGAAGCGGAGTCACCTAGTGCAG”, with 16500 fluorescence intensity (a.u.).
On to “CAAATATCTCTAATATGCAGGCTGCTTGTATTATCCGTATCGGAGTCACCTAGTGCAG”, for which the binding signal is 8110 fluorescence intensity (a.u.).
Turning to “TGCCATGTCACCGCGATGTTGATTTATGACTGGATTTCACCGGAGTCACCTAGTGCAG”, the binding signal is 8530 fluorescence intensity (a.u.).
For “TCCATGGCGGCTGGCTATACCTTTCTGCACTACATTTGCACGGAGTCACCTAGTGCAG”, the binding signal was 8150 fluorescence intensity (a.u.).
As to “AACAAACGTGGCATTATCAACCTTTACATGTCTTAGGCTTCGGAGTCACCTAGTGCAG”, the binding signal was 9260 fluorescence intensity (a.u.).
In the case of “ATTCCTGACTCCCTCCTCCTCCACCTCCACCGTCTCGTCTCGGAGTCACCTAGTGCAG”, the binding signal is 8470 fluorescence intensity (a.u.).
For “CGTGACCTTGTTTGTATATCCACATACGCGAGTTCACATCCGGAGTCACCTAGTGCAG”, the binding signal was 8890 fluorescence intensity (a.u.).
Regarding “CTCTTATTCTATTTATGTTTGTGCTGTAATCTCCGCTCTTCGGAGTCACCTAGTGCAG”, the binding signal was 8680 fluorescence intensity (a.u.).
On to “TCCCTACACTCTACGTACGTACAGTACTCCTATACAGCAACGGAGTCACCTAGTGCAG”, for which the binding signal is 11300 fluorescence intensity (a.u.).
As to “CCGTCATTAGCAAATATTTACTGTAGCATCATATTACATTCGGAGTCACCTAGTGCAG”, the binding signal is 8110 fluorescence intensity (a.u.).
Then “CTCCCACCACCTTTCTTTGCTTTCTTTGACCACCACCATTCGGAGTCACCTAGTGCAG”, with 11300 fluorescence intensity (a.u.); and “ACTTTCTAGCACTGCCTACATTATTATATATGTTAATGAACGGAGTCACCTAGTGCAG”, with 10900 fluorescence intensity (a.u.).
As for “ATCCTGGGCCGCCCTTAGACGTGACAACCACACACACACACGGAGTCACCTAGTGCAG”, the binding signal was 9100 fluorescence intensity (a.u.).
For “ACAGTTAAATTTTAAGCACATGTTTGACTATTCGTCTTATCGGAGTCACCTAGTGCAG”, the binding signal was 8960 fluorescence intensity (a.u.).
Turning to “TTGTGTCATGTCGTCAAGCTGGCAGGTCAAAGCTAAGCTACGGAGTCACCTAGTGCAG”, the binding signal is 8760 fluorescence intensity (a.u.).
On to “GAACAATTTGTCTTTTGCGTGTATGGTTCCCACTTTCCCACGGAGTCACCTAGTGCAG”, for which the binding signal is 8510 fluorescence intensity (a.u.).
“TCCCGTCTCGTTCTCGTTACTGTCTCCTCCGCTCCTCTCCCGGAGTCACCTAGTGCAG”: the binding signal was 8550 fluorescence intensity (a.u.).
With “AAGAGAGTTTAGGGGTACACATTTCTGGTTTTGTAGTTAACGGAGTCACCTAGTGCAG”, the binding signal was 8180 fluorescence intensity (a.u.).
Then “GTGTAGCTTATCTGCAAGCGAGTTTGTGTAATGTCCTATTCGGAGTCACCTAGTGCAG”, with 8760 fluorescence intensity (a.u.); and “ATGACAAAATCACGCGTCATGCAGAATCCTCACTGCATTTCGGAGTCACCTAGTGCAG”, with 8100 fluorescence intensity (a.u.).
For “CCGCCACCCTACGGCTCTCCACCACACTGCCATCCACTACCGGAGTCACCTAGTGCAG”, the binding signal was 9190 fluorescence intensity (a.u.).
Take “GTTGCCTTTCTTTCGCGCTCAGTCTCTCTCGGCCAATTAACGGAGTCACCTAGTGCAG”: the binding signal is 9280 fluorescence intensity (a.u.).
On to “ACAGAGTCGCCCGGTCAGACCGCGGGCTGACCGGTCTGACCGGAGTCACCTAGTGCAG”, for which the binding signal was 8170 fluorescence intensity (a.u.).
Regarding “TACTCCCTCTGTTTTTTAATAGATGACGCCGTTGACTTTTCGGAGTCACCTAGTGCAG”, the binding signal was 17100 fluorescence intensity (a.u.).
Regarding “CTCCCTCCGTTTCTAAATATTTGATACCGTTGACTTTTTACGGAGTCACCTAGTGCAG”, the binding signal was 22300 fluorescence intensity (a.u.).
On to “ACTAGTAATGCCACGCATCGTATTATCCAATCTGAGATACCGGAGTCACCTAGTGCAG”, for which the binding signal is 8220 fluorescence intensity (a.u.).
Turning to “AAACACGGACCTCCGGACCCACCCCATCCACCGTACACGTCGGAGTCACCTAGTGCAG”, the binding signal is 8580 fluorescence intensity (a.u.).
In the case of “GGTGACGGCTGGTGTGGGTGTAGGGTGGCCGCGCGGTACGCGGAGTCACCTAGTGCAG”, the binding signal was 9460 fluorescence intensity (a.u.).
Take “CTCCACACCACTAGCTAGTAATGTGGCCGCTCTCTCCTCACGGAGTCACCTAGTGCAG”: the binding signal was 8070 fluorescence intensity (a.u.).
Take “GAATGATCCCACCTTTGCACATTGTGATTTTAATGTTTTCCGGAGTCACCTAGTGCAG”: the binding signal is 9170 fluorescence intensity (a.u.).
Consider “TTGTATACTTGTAATCACGTGCTATCTTTTCGCTGTTGCACGGAGTCACCTAGTGCAG”, for which the binding signal is 8990 fluorescence intensity (a.u.).
In the case of “GTCCCTCCATGCACGCCCAAATAGCCAGTCACCTCCGCTCCGGAGTCACCTAGTGCAG”, the binding signal is 8270 fluorescence intensity (a.u.).
For the sequence “GCCTCAAACATCTCCACGCAGAAGGCAACTGCATCATCCACGGAGTCACCTAGTGCAG”, the binding signal is 9170 fluorescence intensity (a.u.).
For “TATATATATATATATATATGTGTGTGTGTGTGTGTATGGTCGGAGTCACCTAGTGCAG”, the binding signal is 9770 fluorescence intensity (a.u.).
For the sequence “AGAAGTGGTCTTGGTGGTTAGTTGTTTCCGTTGTATTCGTCGGAGTCACCTAGTGCAG”, the binding signal was 10200 fluorescence intensity (a.u.).
